The supplement of paper PMC3334620
Whole data set: some 33,000 sequences, median “E-score (-0.5 to 0.5)” near -0.0059, cut for the highest 2% near 0.26. The list shows a part of the results.

These sequences were tested against T1, Cin5 (UniProt P40917) (assay: PBM E-score (8-mer binding enrichment) (E-score (-0.5 to 0.5)); higher = stronger / more preferred TF binding). Settings: protein concentration: 100 nM; construct: GST-full length.
T1 sequence: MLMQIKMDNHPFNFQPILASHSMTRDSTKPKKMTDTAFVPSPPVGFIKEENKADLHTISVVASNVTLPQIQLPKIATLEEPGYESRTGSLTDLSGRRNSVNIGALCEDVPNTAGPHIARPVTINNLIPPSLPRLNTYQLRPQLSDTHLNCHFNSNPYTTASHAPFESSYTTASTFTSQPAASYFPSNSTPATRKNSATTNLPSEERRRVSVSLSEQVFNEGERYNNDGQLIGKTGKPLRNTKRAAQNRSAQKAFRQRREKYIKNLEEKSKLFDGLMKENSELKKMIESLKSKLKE
In short: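 Yeast transcription factors, full-length or as DNA-binding domains, were expressed with a GST tag using PURExpress in vitro transcription/translation. At about 100-200 nM they were applied to universal all-10-mer Agilent arrays, double-stranded by primer extension on fresh or once-stripped slides. Fluorescent anti-GST detected bound protein, and masliner normalised the scans. E-scores for ungapped eight-base words, pooled with reverse complements, came from the Universal PBM Analysis Suite.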

Sequence	PBM E-score
CGAGGTTC	0.00352
AATCCTAC	-0.167
AGTCCAGC	-0.285
CATCAAGC	0.0431
ATTCGGCA	-0.0104
CCATAACA	0.102
AGTCTTAA	-0.13
ATTTCTAA	0.0224
CCCAGAAC	-0.0388
AGCGCGAC	0.00359
CTAGCTAA	0.0272
ACCGCTCG	-0.0731
GTTGAGTA	0.0846
ATTGGGTC	0.13
CGAGTCAC	-0.192
CCGCGAGA	-0.167
GAGCGCAA	-0.111
TCGTATCA	0.222
GCGGGTTA	0.0782
ACAGGCGC	-0.26
AGCAGAAG	-0.0132
GAAGGATA	0.0101
AAATTATC	0.278
CGTTTGAC	-0.0898
GTGTAGGA	-0.0437

Sequence	PBM E-score
AGATTGAC	0.0942
GACGTAAC	0.186
ATCCTTTA	-0.0507
ATTTATGA	0.153
GTGTATGA	0.0344
ATGATCGG	0.0758
ACGGTTAA	-0.00571
AGAGGTAT	0.176
CACGCGAA	-0.0826
CACAAGTG	-0.271
AATCTGCA	0.0353
CGCTCCGC	-0.162
CCAGCACA	-0.0863
GTAGTGAA	0.0138
TAGGCTAA	-0.102
GAACAAAA	0.278
CACTATCA	0.0524
TCTTTGAA	-0.103
CCCACATA	0.0598
ATTTCTAG	0.0527
ACCCAGGA	-0.18
CAGTTCAA	0.042
AACCAAAA	0.204
CATCAGTC	-0.0112
ACCTAGGC	-0.123

Sequence	PBM E-score
ACCCCAAC	0.145
ACGCAGTG	-0.238
ACGTGGAT	0.133
CCGAATAG	-0.0268
ACAAAGAC	0.0392
GCTGTGTA	-0.0209
CTCTAAGC	0.0569
CATAGGGA	-0.0595
CCCCCTCA	-0.385
ATGCGAGC	0.0464
CCACACTC	-0.0973
ACTCTGCT	-0.108
GCACGTAC	-0.0532
ACACTTTC	0.154
ATACAAAA	0.28
ATATATAA	0.335
CCTTTTAG	-0.205
AAATTGAC	0.0984
CCCGTATA	-0.0229
ATGTCTCA	0.0216
ACTGTGTA	0.0904
ATATTTTG	0.0818
AGTTACTC	0.0474
ACGCTATA	-0.101
TTCCCGAA	0.0909

Sequence	PBM E-score
TCCTACGA	-0.239
AAGCTCTC	-0.204
AGTGGGGA	-0.0745
CCACAACA	-0.0453
ACATGGAA	0.0579
ACACCGGT	-0.113
GAGTCACA	-0.067
CGACCAGC	-0.127
ACATTATC	0.289
AATTCCTA	0.15
CTAGGCAG	-0.112
GTCGCAAA	0.052
GGGAGGCA	-0.185
ATCCTCTC	0.0131
AGGCTGTA	-0.0114
ACAAAGAT	0.165
CGTACCCC	0.0116
CGTTCCGA	0.111
ACCGGGAT	-0.0607
ACCCTACG	-0.0466
AGTCATAC	0.0498
GCACATCC	-0.0517
CGCTCCTC	-0.373
ACTGCCAT	0.082
TAACCAGA	-0.082

Sequence	PBM E-score
ACAATATA	0.269
CTCCAGTA	0.144
CTATGCAA	0.0805
ACGGTACC	-0.125
ATGTACAA	0.0216
AAACAATA	0.287
GTCTCGAA	-0.105
AGTCTCTC	-0.149
CAGCAAAG	-0.0276
TATCTTGA	0.104
ATTGGCAG	-0.074
ACGCTGCC	-0.139
GACTAGAC	-0.179
CAAACACG	0.0926
TGCGCTAA	0.17
GCCGTTCC	-0.054
GAAACCAC	0.121
GTTACGAA	0.16
ACGTGCAA	0.135
CAGCCCGC	-0.197
GGCTCCTA	-0.233
TACAAGGA	0.0158
AAATTCTT	-0.0979
CTTCACCC	0.0607
TATCTGCA	-0.00198

Sequence	PBM E-score
ACCTCCCG	-0.195
CAGGGGAC	-0.375
CGATGGCG	-0.00568
AATCCGGT	0.168
CAAGAGCC	-0.0752
CTTGAACA	-0.039
AAGCCGGA	0.162
AACGTCGC	-0.0557
CACTGGGC	-0.14
GCTAATCC	0.114
GGTGCATA	-0.0385
CAAGATCG	0.00613
CTGTGGAA	-0.059
CTGTAAGC	0.0794
TTGAGAAA	0.159
GCGGACCA	0.0568
ATGTAATA	0.361
TAATGCGA	0.131
CTTTCACC	0.0758
AGTACACC	0.0554
ATATACCG	0.142
CGCAGCTA	-0.0588
CTGCCAGA	-0.253
ACTCCACT	-0.17
ACAGCTTG	0.11

Sequence	PBM E-score
ACCGTCCG	-0.195
AATTTTCA	0.137
GACACTCA	-0.0435
CCACTCTA	0.0982
AAATATTT	0.141
CTGCTGGC	-0.376
CACACGCA	-0.0982
CACACCGG	-0.0678
GGTCCTGA	-0.0423
CCGGTGCG	-0.12
CAGTGGTC	-0.132
GGTAACAC	0.124
CCTGGTAG	-0.156
CCTTATAC	0.0498
CAGTCACG	-0.161
CCCGAACC	-0.12
CAAACCAG	-0.0671
CCTAAGCC	-0.18
GCGCTGAA	-0.2
AAGAAAAA	0.0155
ATGACCTG	-0.0382
CGTTGCGA	-0.0384
ACGCACCG	-0.0586
ATTACTGA	0.108
CTACTGAG	-0.0292

Sequence	PBM E-score
TCCAAAGA	-0.0912
CCTCAATA	-0.0429
AAGATGTG	0.0887
ACGCCCAC	0.0509
GGACTACC	-0.244
GGTTGTGA	0.144
TTAGACAA	0.108
GGCGTCTA	-0.208
AAACACCT	-0.0455
TATCGTGA	-0.0431
AGTTCCAT	0.159
AGGTGTAC	-0.0656
GAGTACCA	0.125
AAGGATGC	-0.00955
CCTGCTAG	-0.254
ACATCTCG	0.068
AGGCATTC	-0.0484
AATGAGTG	0.146
ATGCGGTC	-0.0372
CTGATCGC	0.0487
AAGAATCC	-0.0347
CCATGCGA	0.0615
CCCGCCCC	0.117
ATCACTAA	0.0259
TAGCTTAA	0.0898

Sequence	PBM E-score
ACTATGCA	0.0827
TAATATAA	0.355
GAAGCGCC	-0.0664
GCTGACTA	0.164
GACGCAAA	0.0322
ATGTCTCG	0.0364
AGAACCTA	0.00385
AAGTTGAA	0.0648
CATTTGCA	0.0979
CCATACTC	0.0191
AGTTCAAG	-0.0113
ACCATCTA	-0.106
GCCTATGA	-0.142
AATCCCTC	-0.113
AGCGCGCA	0.17
CGAGCTTC	0.107
AGCGGCAA	-0.0619
GAGCCCCA	-0.251
AATTGAAC	-0.0725
